Data: article PMC8648105
These are yes or no findings as the source states them, for the method shown. In cells and extracts the contact can be indirect. A yes stands for co-enrichment or nearness to the bait. Other partners may have been found.

Protein sequences, listed by entry. Tags and fused reporters are not part of them.
UniProt G5EES3: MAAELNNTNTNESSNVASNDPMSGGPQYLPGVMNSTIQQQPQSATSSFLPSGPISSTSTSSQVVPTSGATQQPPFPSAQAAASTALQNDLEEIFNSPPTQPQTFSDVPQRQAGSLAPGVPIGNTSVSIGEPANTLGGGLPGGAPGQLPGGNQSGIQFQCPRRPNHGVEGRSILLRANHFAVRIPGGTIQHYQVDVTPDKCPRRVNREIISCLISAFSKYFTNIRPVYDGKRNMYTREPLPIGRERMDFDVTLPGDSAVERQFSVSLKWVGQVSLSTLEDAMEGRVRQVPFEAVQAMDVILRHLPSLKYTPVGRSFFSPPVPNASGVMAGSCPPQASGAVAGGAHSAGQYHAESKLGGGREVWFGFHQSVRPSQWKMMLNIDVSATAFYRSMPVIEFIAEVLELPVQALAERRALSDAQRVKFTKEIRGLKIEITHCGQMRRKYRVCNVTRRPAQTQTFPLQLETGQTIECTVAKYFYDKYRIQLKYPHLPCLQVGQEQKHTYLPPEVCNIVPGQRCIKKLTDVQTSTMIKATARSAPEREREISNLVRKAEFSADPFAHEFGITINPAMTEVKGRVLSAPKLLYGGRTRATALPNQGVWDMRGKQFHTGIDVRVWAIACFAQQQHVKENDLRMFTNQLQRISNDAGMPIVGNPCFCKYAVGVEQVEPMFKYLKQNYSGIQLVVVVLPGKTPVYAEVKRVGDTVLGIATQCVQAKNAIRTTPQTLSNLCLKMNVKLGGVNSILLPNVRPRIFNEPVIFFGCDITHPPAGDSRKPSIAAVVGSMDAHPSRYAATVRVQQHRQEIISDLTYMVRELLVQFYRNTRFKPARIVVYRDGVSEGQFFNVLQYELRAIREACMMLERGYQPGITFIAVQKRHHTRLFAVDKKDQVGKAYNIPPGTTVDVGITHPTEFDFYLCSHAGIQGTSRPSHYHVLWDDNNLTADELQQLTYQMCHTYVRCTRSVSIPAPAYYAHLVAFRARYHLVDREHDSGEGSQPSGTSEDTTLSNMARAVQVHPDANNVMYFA
UniProt Q21351: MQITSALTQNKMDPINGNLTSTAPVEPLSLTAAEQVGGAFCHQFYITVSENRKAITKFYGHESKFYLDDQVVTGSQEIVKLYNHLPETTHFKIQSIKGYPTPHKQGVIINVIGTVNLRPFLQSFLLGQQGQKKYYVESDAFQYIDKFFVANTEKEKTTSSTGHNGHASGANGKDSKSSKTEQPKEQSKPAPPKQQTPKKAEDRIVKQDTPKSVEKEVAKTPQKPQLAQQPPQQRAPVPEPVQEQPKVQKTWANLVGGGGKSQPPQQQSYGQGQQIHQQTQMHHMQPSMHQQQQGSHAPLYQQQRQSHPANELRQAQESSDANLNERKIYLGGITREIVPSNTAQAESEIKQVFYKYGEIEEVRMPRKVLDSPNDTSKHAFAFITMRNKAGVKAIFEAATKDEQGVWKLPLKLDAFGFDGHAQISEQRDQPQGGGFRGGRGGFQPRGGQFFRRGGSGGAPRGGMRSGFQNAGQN

Biological target: T1, PQN-59 (C. elegans (endogenous in N2 embryos)) (UniProt O61708)
T1 sequence: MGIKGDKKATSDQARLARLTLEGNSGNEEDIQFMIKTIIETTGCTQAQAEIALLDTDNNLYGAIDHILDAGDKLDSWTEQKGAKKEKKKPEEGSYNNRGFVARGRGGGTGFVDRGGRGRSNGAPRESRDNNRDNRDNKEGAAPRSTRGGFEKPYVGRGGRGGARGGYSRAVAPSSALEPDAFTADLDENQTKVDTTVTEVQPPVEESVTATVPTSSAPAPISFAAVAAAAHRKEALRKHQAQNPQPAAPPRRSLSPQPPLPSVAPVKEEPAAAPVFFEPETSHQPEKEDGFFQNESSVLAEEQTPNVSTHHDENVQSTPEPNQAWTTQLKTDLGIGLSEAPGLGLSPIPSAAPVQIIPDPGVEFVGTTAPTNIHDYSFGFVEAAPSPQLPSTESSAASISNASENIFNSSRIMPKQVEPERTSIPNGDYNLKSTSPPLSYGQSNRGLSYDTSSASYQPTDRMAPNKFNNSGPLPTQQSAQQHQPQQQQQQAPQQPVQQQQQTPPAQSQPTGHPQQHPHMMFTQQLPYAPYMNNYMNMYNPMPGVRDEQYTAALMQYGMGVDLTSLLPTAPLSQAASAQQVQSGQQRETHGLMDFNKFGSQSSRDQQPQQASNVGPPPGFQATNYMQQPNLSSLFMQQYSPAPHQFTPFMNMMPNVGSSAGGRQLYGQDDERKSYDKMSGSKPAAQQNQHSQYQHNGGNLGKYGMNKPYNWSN
Test: affinity purification with mass spectrometry; PQN-59 serum (pre-serum as control) on Protein G UltraLink Resin, about 2 mg of N2 embryonic protein homogenate, 2 hours on ice; IP buffer 100 mM KCl, 50 mM Tris pH 7.5, 1 mM MgCl2, 1 mM DTT, 5% glycerol, 0.05% NP40, 1 mM EDTA; eluted in 0.15% TFA; three IP samples from two homogenates

Substance | binding
ALG-1 (from UniProt G5EES3 1-1023) | binds
GTBP-1 (from UniProt Q21351 1-473) | binds
